The supplement of paper PMC8728848
The list shows a part of the results.

Assays:
Test in all cases: glycan array binding signal (z-score within array); higher = stronger binding
Details in all cases: glycan notation: IUPAC condensed, linker removed
[1] = target: Fuc(a1-2)Gal(b1-4)GlcNAc(b1-3)Gal(b1-4)GlcNAc(b1-3)Gal(b1-4)GlcNAc
Procedure, shortened: (§1)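 Negative Z-scores can be read as non-binding. The Z-score is calculated within each array and then averaged across arrays of one protein sequence at different concentrations or buffers and across linkers. Arrays, 3228 in all, were curated from the Consortium for Functional Glycomics database and kept only where the protein sequence was available.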

[2] = target: Fuc(a1-2)Gal(b1-4)GlcNAc(b1-3)GalNAc
Procedure, shortened: as §1

[3] = target: Fuc(a1-2)Gal(b1-4)GlcNAc(b1-3)[Fuc(a1-2)Gal(b1-4)GlcNAc(b1-6)]GalNAc
Procedure, shortened: as §1

[4] = target: Fuc(a1-2)Gal(b1-4)GlcNAc(b1-3)[Fuc(a1-3)[Gal(b1-4)]GlcNAc(b1-6)]Gal(b1-4)Glc
Procedure, shortened: as §1

[5] = target: Fuc(a1-2)Gal(b1-4)GlcNAc(b1-6)GalNAc
Procedure, shortened: as §1

[6] = target: Fuc(a1-2)Gal(b1-4)GlcNAc6S
Procedure, shortened: as §1

[7] = target: Fuc(a1-2)Gal(b1-4)[Fuc(a1-3)]GlcNAc
Procedure, shortened: as §1

[8] = target: Fuc(a1-2)Gal(b1-4)[Fuc(a1-3)]GlcNAc(b1-2)Man(a1-3)[Fuc(a1-2)Gal(b1-4)[Fuc(a1-3)]GlcNAc(b1-2)Man(a1-6)]Man(b1-4)GlcNAc(b1-4)[Fuc(a1-6)]GlcNAc
Procedure, shortened: as §1

[9] = target: Fuc(a1-2)Gal(b1-4)[Fuc(a1-3)]GlcNAc(b1-2)[Fuc(a1-2)Gal(b1-4)[Fuc(a1-3)]GlcNAc(b1-4)]Man(a1-3)[Fuc(a1-2)Gal(b1-4)[Fuc(a1-3)]GlcNAc(b1-2)Man(a1-6)]Man(b1-4)GlcNAc(b1-4)GlcNAc
Procedure, shortened: as §1

[10] = target: Fuc(a1-2)Gal(b1-4)[Fuc(a1-3)]GlcNAc(b1-3)Gal(b1-4)[Fuc(a1-3)]GlcNAc
Procedure, shortened: as §1

[11] = target: Fuc(a1-2)Gal(b1-4)[Fuc(a1-3)]GlcNAc(b1-3)Gal(b1-4)[Fuc(a1-3)]GlcNAc(b1-3)Gal(b1-4)[Fuc(a1-3)]GlcNAc
Procedure, shortened: as §1

[12] = target: Fuc(a1-2)Gal(b1-4)[Fuc(a1-3)]GlcNAc(b1-3)GalNAc
Procedure, shortened: as §1

[13] = target: Fuc(a1-2)Gal(b1-4)[Fuc(a1-3)]GlcNAc(b1-3)[Neu5Ac(a2-6)Gal(b1-4)GlcNAc(b1-6)]Gal(b1-4)Glc
Procedure, shortened: as §1

[14] = target: Fuc(a1-2)Gal3S(b1-4)GlcNAc
Procedure, shortened: as §1

[15] = target: Fuc(a1-2)Gal6S(b1-3)GlcNAc
Procedure, shortened: as §1

[16] = target: Fuc(a1-2)Gal6S(b1-3)GlcNAc6S
Procedure, shortened: as §1

Fuc(a1-2)Gal6S(b1-4)Glc = target: Fuc(a1-2)Gal6S(b1-4)Glc
Procedure, shortened: as §1

[17] = target: Fuc(a1-2)Gal6S(b1-4)Glc6S
Procedure, shortened: as §1

Fuc(a1-2)[Gal(a1-3)]Gal = target: Fuc(a1-2)[Gal(a1-3)]Gal
Procedure, shortened: as §1

[18] = target: Fuc(a1-2)[Gal(a1-3)]Gal(b1-3)GalNAc
Procedure, shortened: as §1

[19] = target: Fuc(a1-2)[Gal(a1-3)]Gal(b1-3)GalNAc(b1-3)Gal(a1-4)Gal(b1-4)Glc
Procedure, shortened: as §1

[20] = target: Fuc(a1-2)[Gal(a1-3)]Gal(b1-3)GlcNAc
Procedure, shortened: as §1

[21] = target: Fuc(a1-2)[Gal(a1-3)]Gal(b1-3)GlcNAc(b1-2)Man(a1-3)[Fuc(a1-2)[Gal(a1-3)]Gal(b1-3)GlcNAc(b1-2)Man(a1-6)]Man(b1-4)GlcNAc(b1-4)GlcNAc
Procedure, shortened: as §1

[22] = target: Fuc(a1-2)[Gal(a1-3)]Gal(b1-3)GlcNAc(b1-2)Man(a1-3)[Fuc(a1-2)[Gal(a1-3)]Gal(b1-3)GlcNAc(b1-2)Man(a1-6)]Man(b1-4)GlcNAc(b1-4)[Fuc(a1-6)]GlcNAc
Procedure, shortened: as §1

[23] = target: Fuc(a1-2)[Gal(a1-3)]Gal(b1-3)GlcNAc(b1-3)GalNAc
Procedure, shortened: as §1

[24] = target: Fuc(a1-2)[Gal(a1-3)]Gal(b1-3)GlcNAc(b1-6)GalNAc
Procedure, shortened: as §1

[25] = target: Fuc(a1-2)[Gal(a1-3)]Gal(b1-4)Glc
Procedure, shortened: as §1

[26] = target: Fuc(a1-2)[Gal(a1-3)]Gal(b1-4)GlcNAc
Procedure, shortened: as §1

[27] = target: Fuc(a1-2)[Gal(a1-3)]Gal(b1-4)GlcNAc(b1-2)Man
Procedure, shortened: as §1

[28] = target: Fuc(a1-2)[Gal(a1-3)]Gal(b1-4)GlcNAc(b1-2)Man(a1-3)[Fuc(a1-2)[Gal(a1-3)]Gal(b1-4)GlcNAc(b1-2)Man(a1-6)]Man(b1-4)GlcNAc(b1-4)GlcNAc
Procedure, shortened: as §1

B1: SJCP3842 (Schistosoma japonicum) (protein)
chain: MFKMRIINLVNISTVLLLINLLQTKSRLVGKENGFMLTVSIYGAQLSDKMTSVPVSWTIDYEDPEKSAFKKLVTDSCDTFSEYVKSQIPKGSVDGQCTSHIFQRPGSGSGVSISLTLSFIYVDVTQPDTVALKTELEKHFANFVTIHSHKITQAQFRINQKAIVIPTGDKDAIDGSKWKIIAIIALVALAIVVIGGFIYICVK
- glycan array binding signal (z-score) [1]: -0.904
- glycan array binding signal (z-score) [2]: 0.531
- glycan array binding signal (z-score) [3]: -0.481
- glycan array binding signal (z-score) [4]: -1.15
- glycan array binding signal (z-score) [5]: -1.66
- glycan array binding signal (z-score) [6]: -0.827
- glycan array binding signal (z-score) [7]: -0.703
- glycan array binding signal (z-score) [8]: -0.007
- glycan array binding signal (z-score) [9]: 1.85
- glycan array binding signal (z-score) [10]: 0.164
- glycan array binding signal (z-score) [11]: 1.7
- glycan array binding signal (z-score) [12]: -0.71
- glycan array binding signal (z-score) [13]: -0.155
- glycan array binding signal (z-score) [14]: -0.63
- glycan array binding signal (z-score) [15]: -1.52
- glycan array binding signal (z-score) [16]: 0.201
- glycan array binding signal (z-score) (Fuc(a1-2)Gal6S(b1-4)Glc): 1.84
- glycan array binding signal (z-score) [17]: 1.73
- glycan array binding signal (z-score) (Fuc(a1-2)[Gal(a1-3)]Gal): 0.157
- glycan array binding signal (z-score) [18]: 0.105
- glycan array binding signal (z-score) [19]: -1.73
- glycan array binding signal (z-score) [20]: -0.034
- glycan array binding signal (z-score) [21]: 0.96
- glycan array binding signal (z-score) [22]: 0.193
- glycan array binding signal (z-score) [23]: 0.478
- glycan array binding signal (z-score) [24]: -1.2
- glycan array binding signal (z-score) [25]: 1.07
- glycan array binding signal (z-score) [26]: -1.13
- glycan array binding signal (z-score) [27]: -1.05
- glycan array binding signal (z-score) [28]: 0.46
